# Results taken from the supplement of paper PMC10849652.
# Protein sequences, listed by entry. Tags and fused reporters are not part of them. Lines headed by an entry give the natural chain unless they say otherwise; changes in a name come on top.
# UniProt P53365: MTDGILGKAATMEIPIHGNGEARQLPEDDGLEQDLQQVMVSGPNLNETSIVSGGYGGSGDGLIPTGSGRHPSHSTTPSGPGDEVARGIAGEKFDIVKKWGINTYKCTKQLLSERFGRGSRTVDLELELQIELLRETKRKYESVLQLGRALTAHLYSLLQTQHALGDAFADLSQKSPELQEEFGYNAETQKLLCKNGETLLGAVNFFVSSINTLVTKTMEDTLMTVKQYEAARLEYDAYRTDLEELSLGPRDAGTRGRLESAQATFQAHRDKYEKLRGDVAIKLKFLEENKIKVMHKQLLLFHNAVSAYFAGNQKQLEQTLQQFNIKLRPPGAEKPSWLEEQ
# UniProt Q8N392: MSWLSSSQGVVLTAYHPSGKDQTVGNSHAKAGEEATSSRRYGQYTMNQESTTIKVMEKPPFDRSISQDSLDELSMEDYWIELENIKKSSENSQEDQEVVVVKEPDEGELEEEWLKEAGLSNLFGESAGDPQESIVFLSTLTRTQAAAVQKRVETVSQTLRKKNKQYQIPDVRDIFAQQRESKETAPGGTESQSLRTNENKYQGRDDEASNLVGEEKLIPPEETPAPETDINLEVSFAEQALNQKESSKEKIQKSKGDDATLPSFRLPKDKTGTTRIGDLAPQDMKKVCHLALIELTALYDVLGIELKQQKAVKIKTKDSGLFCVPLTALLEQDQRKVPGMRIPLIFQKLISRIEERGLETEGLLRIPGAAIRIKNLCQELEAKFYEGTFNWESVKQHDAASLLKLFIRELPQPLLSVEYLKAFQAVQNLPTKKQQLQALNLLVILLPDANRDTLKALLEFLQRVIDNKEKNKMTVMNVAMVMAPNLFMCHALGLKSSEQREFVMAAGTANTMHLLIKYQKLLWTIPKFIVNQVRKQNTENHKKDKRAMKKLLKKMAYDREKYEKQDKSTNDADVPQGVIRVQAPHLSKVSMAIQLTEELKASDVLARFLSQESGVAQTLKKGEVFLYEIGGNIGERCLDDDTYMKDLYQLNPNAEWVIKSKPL
# UniProt Q9Y6D5: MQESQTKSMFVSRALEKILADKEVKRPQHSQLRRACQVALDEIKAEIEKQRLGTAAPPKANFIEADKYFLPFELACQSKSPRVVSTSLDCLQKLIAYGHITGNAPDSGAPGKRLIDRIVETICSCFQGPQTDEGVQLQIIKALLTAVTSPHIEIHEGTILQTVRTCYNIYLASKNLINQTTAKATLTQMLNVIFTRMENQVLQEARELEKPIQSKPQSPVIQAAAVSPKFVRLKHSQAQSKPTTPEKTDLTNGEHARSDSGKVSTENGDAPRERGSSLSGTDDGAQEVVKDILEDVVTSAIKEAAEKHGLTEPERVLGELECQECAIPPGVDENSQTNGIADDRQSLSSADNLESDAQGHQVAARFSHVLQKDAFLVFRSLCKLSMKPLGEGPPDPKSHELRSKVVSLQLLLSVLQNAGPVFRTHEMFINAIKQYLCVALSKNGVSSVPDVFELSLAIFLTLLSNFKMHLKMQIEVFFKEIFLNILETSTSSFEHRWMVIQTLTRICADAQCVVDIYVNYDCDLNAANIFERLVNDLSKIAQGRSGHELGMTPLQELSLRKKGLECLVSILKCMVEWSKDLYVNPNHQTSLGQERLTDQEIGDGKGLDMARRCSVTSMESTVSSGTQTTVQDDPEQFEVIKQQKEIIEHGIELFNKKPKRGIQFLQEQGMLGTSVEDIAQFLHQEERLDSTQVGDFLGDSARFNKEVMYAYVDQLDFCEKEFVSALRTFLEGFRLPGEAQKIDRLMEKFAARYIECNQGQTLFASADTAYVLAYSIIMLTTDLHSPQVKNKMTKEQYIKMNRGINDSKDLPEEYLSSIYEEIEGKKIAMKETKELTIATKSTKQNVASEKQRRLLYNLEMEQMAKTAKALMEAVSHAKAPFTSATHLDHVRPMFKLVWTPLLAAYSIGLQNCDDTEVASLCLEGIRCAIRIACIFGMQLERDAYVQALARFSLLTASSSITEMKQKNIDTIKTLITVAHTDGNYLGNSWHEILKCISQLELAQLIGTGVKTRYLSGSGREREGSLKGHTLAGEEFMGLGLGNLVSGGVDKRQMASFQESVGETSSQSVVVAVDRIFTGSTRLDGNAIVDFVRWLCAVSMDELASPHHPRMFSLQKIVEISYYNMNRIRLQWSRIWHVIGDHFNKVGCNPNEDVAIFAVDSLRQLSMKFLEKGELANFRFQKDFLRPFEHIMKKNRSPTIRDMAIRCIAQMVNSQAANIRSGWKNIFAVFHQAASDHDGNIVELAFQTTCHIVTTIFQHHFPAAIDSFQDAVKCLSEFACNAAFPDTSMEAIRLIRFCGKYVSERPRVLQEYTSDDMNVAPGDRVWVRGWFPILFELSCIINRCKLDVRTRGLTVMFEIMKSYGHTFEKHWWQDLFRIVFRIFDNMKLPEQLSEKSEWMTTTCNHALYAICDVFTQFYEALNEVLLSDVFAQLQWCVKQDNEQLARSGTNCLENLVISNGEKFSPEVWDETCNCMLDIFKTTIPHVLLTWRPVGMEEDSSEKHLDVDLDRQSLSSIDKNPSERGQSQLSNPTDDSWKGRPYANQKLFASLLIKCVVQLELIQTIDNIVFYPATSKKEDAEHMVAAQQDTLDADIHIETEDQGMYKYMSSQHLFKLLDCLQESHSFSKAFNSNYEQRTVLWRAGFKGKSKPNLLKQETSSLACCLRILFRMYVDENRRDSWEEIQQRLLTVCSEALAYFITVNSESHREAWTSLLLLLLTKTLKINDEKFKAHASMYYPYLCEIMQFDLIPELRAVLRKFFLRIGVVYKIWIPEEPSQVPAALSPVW
# UniProt Q9Y4X5: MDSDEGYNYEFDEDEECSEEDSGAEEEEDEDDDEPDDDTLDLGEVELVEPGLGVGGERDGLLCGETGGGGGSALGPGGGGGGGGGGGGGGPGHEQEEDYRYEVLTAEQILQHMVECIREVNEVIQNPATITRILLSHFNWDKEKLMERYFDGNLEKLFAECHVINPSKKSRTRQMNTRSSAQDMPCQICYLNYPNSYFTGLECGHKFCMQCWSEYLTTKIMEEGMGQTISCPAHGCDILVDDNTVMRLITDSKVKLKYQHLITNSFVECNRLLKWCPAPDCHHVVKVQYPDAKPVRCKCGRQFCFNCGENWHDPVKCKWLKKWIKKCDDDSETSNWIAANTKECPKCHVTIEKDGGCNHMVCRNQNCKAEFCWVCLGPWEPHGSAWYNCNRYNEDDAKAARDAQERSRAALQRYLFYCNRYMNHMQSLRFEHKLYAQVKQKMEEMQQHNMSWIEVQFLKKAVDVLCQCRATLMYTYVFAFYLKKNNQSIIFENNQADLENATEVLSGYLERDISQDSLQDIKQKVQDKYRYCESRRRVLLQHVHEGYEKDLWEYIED
# UniProt O75915: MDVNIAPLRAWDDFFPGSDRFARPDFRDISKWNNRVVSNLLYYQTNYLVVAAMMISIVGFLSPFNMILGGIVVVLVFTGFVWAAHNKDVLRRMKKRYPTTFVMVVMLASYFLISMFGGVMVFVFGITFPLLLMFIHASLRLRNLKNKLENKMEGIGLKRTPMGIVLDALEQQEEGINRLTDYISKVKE
# UniProt P36405: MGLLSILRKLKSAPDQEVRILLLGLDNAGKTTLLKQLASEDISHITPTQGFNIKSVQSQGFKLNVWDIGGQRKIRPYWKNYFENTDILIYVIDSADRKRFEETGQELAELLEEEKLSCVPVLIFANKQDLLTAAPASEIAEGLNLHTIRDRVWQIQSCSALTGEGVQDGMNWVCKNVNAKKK
# UniProt Q9HDC9: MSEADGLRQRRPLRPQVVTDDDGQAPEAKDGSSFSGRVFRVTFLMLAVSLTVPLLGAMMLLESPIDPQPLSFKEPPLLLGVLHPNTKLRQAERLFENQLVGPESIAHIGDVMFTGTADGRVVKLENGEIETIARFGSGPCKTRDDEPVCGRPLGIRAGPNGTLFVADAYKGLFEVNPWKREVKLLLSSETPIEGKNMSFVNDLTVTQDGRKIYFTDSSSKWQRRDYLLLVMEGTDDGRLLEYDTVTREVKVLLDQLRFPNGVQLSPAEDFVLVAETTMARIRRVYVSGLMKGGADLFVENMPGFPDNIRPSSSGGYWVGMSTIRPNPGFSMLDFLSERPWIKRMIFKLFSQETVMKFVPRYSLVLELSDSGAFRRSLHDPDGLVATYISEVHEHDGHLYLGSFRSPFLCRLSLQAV
# UniProt Q9Y6D6: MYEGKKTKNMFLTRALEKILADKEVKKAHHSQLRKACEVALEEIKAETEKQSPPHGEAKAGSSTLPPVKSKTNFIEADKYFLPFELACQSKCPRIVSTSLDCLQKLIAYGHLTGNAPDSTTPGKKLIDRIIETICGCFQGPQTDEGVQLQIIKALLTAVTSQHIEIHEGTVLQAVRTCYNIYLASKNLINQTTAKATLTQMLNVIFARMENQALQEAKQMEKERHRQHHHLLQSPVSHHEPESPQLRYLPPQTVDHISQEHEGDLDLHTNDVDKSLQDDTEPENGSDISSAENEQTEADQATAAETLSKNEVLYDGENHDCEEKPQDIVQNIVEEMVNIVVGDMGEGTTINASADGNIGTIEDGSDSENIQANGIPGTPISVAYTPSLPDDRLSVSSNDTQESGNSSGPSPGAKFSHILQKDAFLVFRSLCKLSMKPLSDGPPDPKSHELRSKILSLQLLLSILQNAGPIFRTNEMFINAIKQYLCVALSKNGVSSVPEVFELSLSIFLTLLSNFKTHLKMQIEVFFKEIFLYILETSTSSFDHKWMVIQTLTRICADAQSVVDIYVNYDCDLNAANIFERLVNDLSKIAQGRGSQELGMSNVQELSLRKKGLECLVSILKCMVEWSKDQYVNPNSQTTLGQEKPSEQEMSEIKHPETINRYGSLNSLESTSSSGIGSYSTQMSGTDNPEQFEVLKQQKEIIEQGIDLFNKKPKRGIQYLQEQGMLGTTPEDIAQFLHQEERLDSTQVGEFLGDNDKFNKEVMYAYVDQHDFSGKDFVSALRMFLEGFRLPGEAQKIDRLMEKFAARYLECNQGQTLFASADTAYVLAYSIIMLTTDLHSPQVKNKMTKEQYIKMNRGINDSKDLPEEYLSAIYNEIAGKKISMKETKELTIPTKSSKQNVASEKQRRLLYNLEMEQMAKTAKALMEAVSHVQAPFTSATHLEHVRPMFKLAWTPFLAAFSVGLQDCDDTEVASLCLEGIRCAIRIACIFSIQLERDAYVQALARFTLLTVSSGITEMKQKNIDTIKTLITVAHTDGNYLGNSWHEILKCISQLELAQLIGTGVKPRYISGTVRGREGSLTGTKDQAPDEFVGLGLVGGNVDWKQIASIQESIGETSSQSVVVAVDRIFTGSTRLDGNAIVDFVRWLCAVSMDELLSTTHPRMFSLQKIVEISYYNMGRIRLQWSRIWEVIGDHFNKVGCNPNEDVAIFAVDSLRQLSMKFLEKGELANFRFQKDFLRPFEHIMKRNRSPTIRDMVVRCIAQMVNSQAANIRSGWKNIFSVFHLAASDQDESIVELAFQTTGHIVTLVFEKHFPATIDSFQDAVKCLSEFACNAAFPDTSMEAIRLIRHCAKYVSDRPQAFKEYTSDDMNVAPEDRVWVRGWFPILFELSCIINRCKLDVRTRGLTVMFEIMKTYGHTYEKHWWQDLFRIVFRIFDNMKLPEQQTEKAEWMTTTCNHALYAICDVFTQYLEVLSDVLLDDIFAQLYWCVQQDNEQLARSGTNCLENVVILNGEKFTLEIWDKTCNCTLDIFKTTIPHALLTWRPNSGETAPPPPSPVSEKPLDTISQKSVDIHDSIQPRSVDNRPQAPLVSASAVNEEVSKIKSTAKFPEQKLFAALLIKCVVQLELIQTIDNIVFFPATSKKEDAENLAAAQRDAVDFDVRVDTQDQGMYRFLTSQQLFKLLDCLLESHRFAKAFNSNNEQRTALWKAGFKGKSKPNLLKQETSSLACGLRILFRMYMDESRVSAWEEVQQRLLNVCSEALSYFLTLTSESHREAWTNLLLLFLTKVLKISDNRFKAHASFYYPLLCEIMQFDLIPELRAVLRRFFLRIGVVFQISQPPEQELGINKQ
# UniProt P27695, whole entry, looked up: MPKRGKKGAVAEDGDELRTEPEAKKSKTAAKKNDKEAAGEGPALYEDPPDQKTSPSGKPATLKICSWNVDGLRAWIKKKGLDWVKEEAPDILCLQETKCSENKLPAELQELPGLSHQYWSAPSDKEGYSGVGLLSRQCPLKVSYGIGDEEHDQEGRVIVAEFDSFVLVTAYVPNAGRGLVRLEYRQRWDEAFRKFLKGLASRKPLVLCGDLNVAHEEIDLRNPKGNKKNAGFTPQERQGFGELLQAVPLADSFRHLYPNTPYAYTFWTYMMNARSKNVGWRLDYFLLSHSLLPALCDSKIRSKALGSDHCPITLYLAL
# UniProt Q66PJ3: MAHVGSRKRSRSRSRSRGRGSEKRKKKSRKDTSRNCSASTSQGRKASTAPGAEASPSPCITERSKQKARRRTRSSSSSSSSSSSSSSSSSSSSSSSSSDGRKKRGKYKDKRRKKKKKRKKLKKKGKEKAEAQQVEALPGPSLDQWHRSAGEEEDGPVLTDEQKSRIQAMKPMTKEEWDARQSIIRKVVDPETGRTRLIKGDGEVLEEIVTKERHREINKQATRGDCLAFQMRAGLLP
# The other results are listed elsewhere or left out.
# How the values were obtained:
# Assay in all cases: log2 fold change, soluble protein after heating vs DMSO (PISA); higher = thermal stabilisation; K562 lysate, 10 uM; active = over 0.2 and 3.5 SD of the protein, either way, in both replicates (recomputed)
# [1] = compound: C=CC(=O)N1CCC[C@@H](n2nc(-c3ccc(Oc4ccccc4)cc3)c3c(N)ncnc32)C1 [ibrutinib]
# Summary of the method: (§1)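 K562 pellets were dounce-homogenised in PBS pH 7.4 containing 1 mM MgCl2, and the crude extract, at 1 mg/mL protein, was exposed to 10 μM compound for 30 min. Aliquots were heated for 3 min across 48°C-58°C, pooled, brought to 0.5% NP-40 at 4°C and spun at 21,000xg for 90 min, with the supernatant taken as soluble protein. TMTpro 16plex LC-MS/MS with equalised channel sums quantified that protein. Values are log-two fold changes in thermal stability relative to solvent controls, taken from duplicates.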
# [2] = compound: CC(=O)c1cnc2ccc(-c3cc(Cl)c(O)c(Cl)c3)nc2c1N[C@H]1CC[C@H](CN(C)C)CC1
# Summary of the method: as §1
# [3] = compound: CC(C)(C)Cn1c(N)nc2ccc(-c3[nH]c(C(C)(C)C)nc3-c3ccc(F)cc3)nc21 [ralimetinib]
# Summary of the method: as §1
# [4] = compound: CC(C)(O)CC(=O)NCCn1ccc2ncnc(Nc3ccc(Oc4cccc(C(F)(F)F)c4)c(Cl)c3)c21
# Summary of the method: as §1
# [5] = compound: CC(C)C1=C2N=C(C=C(N2N=C1)NCC3=CC=CC=C3)NCCCCCCN
# Summary of the method: as §1
# [6] = compound: CC1=C(C(CC(=O)N1)C2=CC=C(C=C2)C(F)(F)F)C(=O)NC3=C(C=C4C(=C3)C=NN4)F
# Summary of the method: as §1
# [7] = compound: CC1=C(C2=C(C=C1)C(=O)C3=CC=CC=C3N2CCCN)C
# Summary of the method: as §1
# [8] = compound: CC1=C(C=C(C=C1)NC(=O)C2=CC(=CC=C2)C(C)(C)C#N)NC3=CC4=C(C=C3)N=CN(C4=O)C
# Summary of the method: as §1
# [9] = compound: CC1=C(C=C(C=C1)NC(=O)C2=CC(=CC=C2)N(C)C)NC(=O)C3=CC=C(C=C3)O
# Summary of the method: as §1
# [10] = compound: CC1=CC=C(C=C1)SC2=C3C=C(SC3=CN=C2)C(=O)N
# Summary of the method: as §1
# [11] = compound: CCCS(=O)(=O)Nc1ccc(F)c(C(=O)c2c[nH]c3ncc(-c4ccc(Cl)cc4)cc23)c1F [vemurafenib]
# Summary of the method: as §1
# [12] = compound: CCCS(=O)(=O)Nc1ccc(F)c(C(=O)c2c[nH]c3ncc(Cl)cc23)c1F
# Summary of the method: as §1
# [13] = compound: CCN(CCCOc1ccc2c(Nc3cc(CC(=O)Nc4cccc(F)c4)[nH]n3)ncnc2c1)CCOP(=O)(O)O [barasertib]
# Summary of the method: as §1
# [14] = compound: CC[C@@H]1C(=O)N(C)c2cnc(Nc3ccc(C(=O)NC4CCN(C)CC4)cc3OC)nc2N1C1CCCC1
# Summary of the method: as §1
# [15] = compound: CC[C@@H]1C(=O)N(C)c2cnc(Nc3ccc(C(=O)N[C@H]4CC[C@H](N5CCN(CC6CC6)CC5)CC4)cc3OC)nc2N1C(C)C [volasertib]
# Summary of the method: as §1
# [16] = compound: CCn1c(C(=O)N(C2CC2)C2CC2)cc2c3c(ncn3C)c(Nc3cc(C)n(C)n3)nc21
# Summary of the method: as §1
# [17] = compound: CCn1cc(-c2ccnc3[nH]c(-c4cccc(CN(C)C)c4)cc23)c(-c2ccc(NC(=O)N(C)C)cc2)n1
# Summary of the method: as §1
# [18] = compound: CN1CCC(CNc2ccc3ncc(-c4cccc(OC(F)(F)F)c4)n3n2)CC1
# Summary of the method: as §1
# [19] = compound: CN1CCN(CCOc2cc(OC3CCOCC3)c3c(Nc4c(Cl)ccc5c4OCO5)ncnc3c2)CC1 [saracatinib]
# Summary of the method: as §1
# [20] = compound: CN1CCN(c2nc(C3=C(c4c[nH]c5ccccc45)C(=O)NC3=O)c3ccccc3n2)CC1 [sotrastaurin]
# Summary of the method: as §1
Target,log2 fold change [1],log2 fold change [2],log2 fold change [3],log2 fold change [4],log2 fold change [5],log2 fold change [6],log2 fold change [7],log2 fold change [8],log2 fold change [9],log2 fold change [10],log2 fold change [11],log2 fold change [12],log2 fold change [13],log2 fold change [14],log2 fold change [15],log2 fold change [16],log2 fold change [17],log2 fold change [18],log2 fold change [19],log2 fold change [20]
ARID1B isoform 3 (UniProt Q8NFD5),inactive: -0.056,inactive: -0.031,inactive: 0.026,inactive: 0.001,inactive: 0.016,inactive: -0.008,inactive: 0.019,inactive: -0.025,inactive: -0.034,inactive: -0.031,inactive: -0.039,inactive: 0.04,inactive: 0.043,inactive: -0.03,inactive: 0.001,inactive: 0.014,inactive: 0.155,inactive: -0.051,inactive: 0.024,inactive: 0.005
ARFIP2 (UniProt P53365),inactive: 0,inactive: -0.006,inactive: 0.065,inactive: -0.023,inactive: -0.02,inactive: 0.028,inactive: 0.062,inactive: -0.045,inactive: 0.034,inactive: -0.014,inactive: 0.009,inactive: -0.022,inactive: 0.037,inactive: 0.072,inactive: -0.003,inactive: -0.008,inactive: 0.009,inactive: -0.019,inactive: 0.078,inactive: -0.042
AP5M1 (UniProt Q9H0R1),inactive: -0.374,inactive: 0,inactive: 0.025,inactive: -0.052,inactive: 0.005,inactive: -0.012,inactive: 0.062,inactive: -0.024,inactive: 0.108,inactive: 0.034,inactive: -0.205,inactive: -0.021,inactive: -0.022,inactive: 0.012,inactive: -0.029,inactive: 0.036,inactive: 0.205,inactive: 0.012,inactive: 0.007,inactive: 0.009
ARHGAP18 (UniProt Q8N392),inactive: -0.003,inactive: -0.012,inactive: 0.007,inactive: -0.011,inactive: -0.018,inactive: -0.013,inactive: 0.003,inactive: 0.03,inactive: -0.006,inactive: 0.017,inactive: -0.047,inactive: 0.002,inactive: 0.038,inactive: -0.022,inactive: 0.006,inactive: 0,inactive: -0.013,inactive: 0.002,inactive: 0.019,inactive: 0.024
ARFGEF2 (UniProt Q9Y6D5),inactive: 0.029,inactive: 0.023,inactive: 0.004,inactive: -0.04,inactive: -0.019,inactive: 0.027,inactive: 0.007,inactive: 0.011,inactive: 0.001,inactive: -0.028,inactive: -0.035,inactive: 0.028,inactive: 0.038,inactive: -0.044,inactive: -0.065,inactive: 0.013,inactive: -0.033,inactive: -0.037,inactive: 0.055,inactive: -0.01
ARIH1 (UniProt Q9Y4X5),inactive: 0.005,inactive: 0.015,inactive: -0.002,inactive: -0.039,inactive: -0.017,inactive: 0.002,inactive: 0.035,inactive: 0.035,inactive: -0.019,inactive: 0.016,inactive: -0.015,inactive: 0.003,inactive: -0.009,inactive: -0.017,inactive: 0.014,inactive: -0.039,inactive: 0.082,inactive: 0.005,inactive: -0.011,inactive: -0.013
ARL6IP5 (UniProt O75915),inactive: 0.032,inactive: 0.014,inactive: 0.036,inactive: 0.011,inactive: -0.003,inactive: 0,inactive: 0.034,inactive: -0.106,inactive: -0.01,inactive: -0.004,inactive: -0.065,inactive: -0.006,inactive: 0,inactive: -0.124,inactive: 0.015,inactive: -0.015,inactive: 0.187,inactive: -0.124,inactive: -0.013,inactive: 0.007
ARL3 (UniProt P36405),inactive: 0.038,inactive: 0.01,inactive: -0.005,inactive: 0.01,inactive: 0.002,inactive: -0.016,inactive: -0.011,inactive: -0.001,inactive: 0.006,inactive: -0.01,inactive: 0.011,inactive: -0.018,inactive: -0.029,inactive: 0.013,inactive: 0.038,inactive: -0.028,inactive: 0.037,inactive: 0.021,inactive: -0.017,inactive: 0.007
APMAP (UniProt Q9HDC9),inactive: 0.044,inactive: 0.004,inactive: 0.069,inactive: 0.007,inactive: 0.011,inactive: -0.016,inactive: 0.039,inactive: 0.006,inactive: 0.006,inactive: 0.014,inactive: 0.011,inactive: -0.001,inactive: 0.03,inactive: -0.003,inactive: 0.02,inactive: 0.007,inactive: 0.014,inactive: 0.03,inactive: -0.005,inactive: 0.003
ARHGEF18 (UniProt Q6ZSZ5),inactive: 0.031,inactive: 0.019,inactive: -0.043,inactive: -0.021,inactive: -0.016,inactive: -0.081,inactive: 0,inactive: -0.015,inactive: -0.047,inactive: 0.021,inactive: -0.19,inactive: 0.04,inactive: -0.002,inactive: 0.018,inactive: -0.074,inactive: -0.032,inactive: -0.049,inactive: 0.077,inactive: 0.023,inactive: 0.022
ARID4B (UniProt Q4LE39),inactive: -0.063,inactive: 0.02,inactive: 0.01,inactive: -0.021,inactive: 0.03,inactive: -0.051,inactive: 0.022,inactive: 0.023,inactive: 0.001,inactive: -0.013,inactive: -0.001,inactive: 0.025,inactive: 0.073,inactive: 0.09,inactive: -0.017,inactive: 0.012,inactive: 0.067,inactive: -0.036,inactive: 0.019,inactive: -0.005
APOB (UniProt P04114),inactive: -0.025,inactive: -0.016,inactive: -0.052,inactive: -0.195,inactive: 0.011,inactive: -0.02,inactive: -0.089,inactive: 0.063,inactive: -0.005,inactive: -0.036,inactive: -0.006,inactive: 0.039,inactive: 0.03,inactive: -0.009,inactive: 0.026,inactive: -0.189,active: -0.224,inactive: 0.092,inactive: 0.029,inactive: 0.024
ARFGEF1 (UniProt Q9Y6D6),inactive: -0.023,inactive: -0.003,inactive: 0.025,inactive: -0.016,inactive: -0.016,inactive: 0.035,inactive: 0.002,inactive: 0.011,inactive: 0.013,inactive: -0.011,inactive: 0.011,inactive: 0.025,inactive: 0.068,inactive: -0.031,inactive: -0.039,inactive: 0.05,inactive: -0.031,inactive: -0.044,inactive: 0.005,inactive: 0.004
APEX1 (UniProt P27695),inactive: 0.048,inactive: -0.001,inactive: -0.014,inactive: 0.026,inactive: 0.006,inactive: 0.001,inactive: -0.02,inactive: -0.011,inactive: 0.01,inactive: 0.019,inactive: 0.019,inactive: 0.017,inactive: -0.027,inactive: -0.03,inactive: -0.004,inactive: 0.043,active: 0.37,inactive: -0.07,inactive: -0.001,inactive: 0.009
ARL6IP4 (UniProt Q66PJ3),inactive: 0.028,inactive: -0.024,inactive: 0.001,inactive: -0.027,inactive: -0.028,inactive: -0.043,inactive: -0.015,inactive: -0.029,inactive: 0.007,inactive: -0.008,inactive: 0.19,inactive: 0.012,inactive: -0.002,inactive: 0.044,inactive: 0.049,inactive: -0.064,inactive: 0.011,inactive: 0.002,inactive: 0.043,inactive: 0.012

# Part of the list above in a different format:
Target	log2 fold change [1]	log2 fold change [2]	log2 fold change [3]	log2 fold change [4]	log2 fold change [5]	log2 fold change [6]	log2 fold change [7]	log2 fold change [8]	log2 fold change [9]	log2 fold change [10]	log2 fold change [11]	log2 fold change [12]	log2 fold change [13]	log2 fold change [14]	log2 fold change [15]	log2 fold change [16]	log2 fold change [17]	log2 fold change [18]	log2 fold change [19]	log2 fold change [20]
ARFGEF1 (UniProt Q9Y6D6)	inactive: -0.023	inactive: -0.003	inactive: 0.025	inactive: -0.016	inactive: -0.016	inactive: 0.035	inactive: 0.002	inactive: 0.011	inactive: 0.013	inactive: -0.011	inactive: 0.011	inactive: 0.025	inactive: 0.068	inactive: -0.031	inactive: -0.039	inactive: 0.05	inactive: -0.031	inactive: -0.044	inactive: 0.005	inactive: 0.004
APEX1 (UniProt P27695)	inactive: 0.048	inactive: -0.001	inactive: -0.014	inactive: 0.026	inactive: 0.006	inactive: 0.001	inactive: -0.02	inactive: -0.011	inactive: 0.01	inactive: 0.019	inactive: 0.019	inactive: 0.017	inactive: -0.027	inactive: -0.03	inactive: -0.004	inactive: 0.043	active: 0.37	inactive: -0.07	inactive: -0.001	inactive: 0.009
ARL6IP4 (UniProt Q66PJ3)	inactive: 0.028	inactive: -0.024	inactive: 0.001	inactive: -0.027	inactive: -0.028	inactive: -0.043	inactive: -0.015	inactive: -0.029	inactive: 0.007	inactive: -0.008	inactive: 0.19	inactive: 0.012	inactive: -0.002	inactive: 0.044	inactive: 0.049	inactive: -0.064	inactive: 0.011	inactive: 0.002	inactive: 0.043	inactive: 0.012
